Laboratory results as given in patent US20210348119A1, “COMPOSITIONS AND METHODS FOR CELL CULTURE” (The United States of America as Represented By The …, priority 2018, published 2021).
Values joined by “and” are separate entries in the source; they are usually repeats but may differ in a detail not shown here. Equal entries are not always repeated. Structures can show the parent of a compound that is named as a salt.

Tested on: H9 cells
Assay: qHTS for survival of dissociated H9 cells (CellTiter-Glo, 24 hours after seeding)
Type: cell-based, human
Conditions: curve class per Huang et al. 2011
Source text: FIG. 2 schematically illustrates qHTS procedure.
All the screed compounds were received pre-plated at the pre-determined concentrations. […] Curve classification is explained in Huang et al. “Chemical genomics profiling of environmental chemical modulation of human nuclear receptors” Environ. Health. Perspect.

For `CCn1c(-c2nonc2N)nc2cnc(Oc3cccc(NC(=O)c4ccc(OCCN5CCOCC5)cc4)c3)cc21` [GSK-269962A], the “CC (curve class)” value was 2.

With `Nc1nc2nc[nH]c2c(=S)[nH]1` [Tioguanine] the “CC (curve class)” value was 4.

In the case of `O=C(NCc1cccc(O)c1)c1cc2cc(F)ccc2[nH]1` [KX1-004], the “CC (curve class)” value was 1.

For `CN1CCN(c2cccc(Nc3nc4c(-c5ccc(S(C)(=O)=O)cc5)cccn4n3)c2)CC1` [CEP-33779], the “CC (curve class)” value was 1.

`Cl.Cl.O=S(=O)(NCCNC/C=C/c1ccc(Br)cc1)c1cccc2cnccc12` [H-89] was tested, and the “CC (curve class)” value was 4.

`O=S(=O)(NCC1CC1)c1ccc(Nc2nccc(N3CCCc4cc(O)ccc43)n2)cc1` [Pyrintegrin] was tested, and the “CC (curve class)” value was 2.

With `C[C@@H](N)c1ccc(C(=O)Nc2ccnc3[nH]ccc23)cc1` [Y-39983] the “CC (curve class)” value was 1.

`CCS(=O)(=O)N1CCN(c2ccc(Nc3ncc(C(N)=O)c(NC4CC4)n3)cc2)CC1` [Cerdulatinib] was tested, and the “CC (curve class)” value was 1.

With `CN1CCN(Cc2ccc(-c3cnc4[nH]cc(-c5ccc6[nH]ccc6c5)c4c3)cc2)CC1` [URMC-099] the “CC (curve class)” value was 2.

For `CNc1nccc(-c2cccnc2Oc2cc(C(=O)Nc3cccc(C(F)(F)F)c3)ccc2C)n1` [AMG-Tie2-1], the “CC (curve class)” value was 2.

For `Cc1nc(N2CCN(C(=O)c3ccco3)CC2)c2c3c(sc2n1)CCCC3` [ML192], the “CC (curve class)” value was 4.

In the case of `CC(C)CCC(=O)CC1c2ccccc2C(=O)N1c1ccc2ccc(Cl)nc2n1` (single isomer, unassigned; (+)) [(+)-Pagoclone], the “CC (curve class)” value was 4.

`COc1c(Nc2ncc(Cl)c(N[C@H]3[C@@H](C(N)=O)[C@@H]4C=C[C@H]3C4)n2)ccc2c1CC[C@@H](N1CCOCC1)CC2` [CEP-28122] was tested, and the “CC (curve class)” value was 1.

In the case of `Cc1n[nH]c2ccc(-c3cncc(OC[C@@H](N)Cc4c[nH]c5ccccc45)c3)cc12` [A-443654], the “CC (curve class)” value was 4.

With `O=C(c1ccc(/C=C/c2n[nH]c3ccccc23)cc1)N1CCNCC1` [KW-2449] the “CC (curve class)” value was 3.

`Cn1c(=O)c2c(ncn2CC2OCCO2)n(C)c1=O` [Doxofylline] was tested, and the “CC (curve class)” value was 4.

With `CCCCOc1c(C(=O)c2c(F)cc(C)cc2F)c[nH]c2nncc1-2` [BMS-265246] the “CC (curve class)” value was 1.

`CN(C)CCOc1cc(-c2cn[nH]c2)ccc1NC(=O)C1COc2ccccc2O1` (centres unmarked) [SR-3677] was tested, and the “CC (curve class)” value was 1.

For `Cc1cc2c(cc1CC(=O)c1sccc1S(=O)(=O)[N-]c1onc(C)c1Cl)OCO2.[Na+]` [Sitaxenian sodium], the “CC (curve class)” value was 2.

In the case of `C=C(CO)C(=O)O[C@H]1CC(=C)[C@@H]2C[C@H](O)C(=C)[C@@H]2[C@H]2OC(=O)C(=C)[C@@H]21` [NCGC00168845-02], the “CC (curve class)” value was 2.

`Cn1c2ccccc2c2c3c(c4c5ccccc5n(CCC#N)c4c21)CNC3=O` [Go-6976] was tested, and the “CC (curve class)” value was 2.

`CCC(=O)N1CCN(c2ccc(-n3c(=O)ccc4cnc5ccc(-c6cnc7ccccc7c6)cc5c43)cc2C(F)(F)F)CC1` [Torin-1] was tested, and the “CC (curve class)” value was 2.

In the case of `CC1=C(C(=O)Nc2cc3cn[nH]c3cc2F)C(c2ccc(Cl)cc2F)N=C(c2ccnc(Cl)c2)N1` (centres unmarked) [GSK-25], the “CC (curve class)” value was 1.

`O=S(=O)(N=Cc1c(O)ccc2ccccc12)c1cccs1` [STF-083010] was tested, and the “CC (curve class)” value was 2.

For `N#Cc1cc(F)cc(-c2nc(-c3ccccn3)no2)c1` [VU 0285683], the “CC (curve class)” value was 4.

`Cc1cccc(NC(=O)c2ccc(C(F)(F)F)cc2C(=O)O)n1` [AF38469] was tested, and the “CC (curve class)” value was 2.

`O=C(Nc1ccc2[nH]ncc2c1)C1CCC1` [Rhodblock 6] was tested, and the “CC (curve class)” value was 3.

In the case of `C[C@@H]1O[C@@H](OC2C(O[C@H]3[C@H](O[C@H]4CC[C@@]5(C)C(CC[C@]6(C)C5CC=C5C7CC(C)(C)CC(O)[C@]7(C)CC[C@]56C)C4(C)C)O[C@H](C(=O)O)[C@@H](O)[C@@H]3O)OC(CO)C(O)C2O)[C@H](O)[C@H](O)[C@H]1O` (some centres unmarked) [NCGC00381003-01], the “CC (curve class)” value was 2.

`C[C@@H]1O[C@@H](O[C@H]2[C@H](O[C@H]3[C@H](O[C@H]4CC[C@@]5(C)C(CC[C@]6(C)C5CC=C5[C@@H]7CC(C)(C(=O)O)C[C@@H](O)[C@]7(C)CC[C@]56C)[C@@]4(C)CO)O[C@H](C(=O)O)[C@@H](O)[C@@H]3O)O[C@H](CO)[C@H](O)[C@@H]2O)[C@H](O)[C@H](O)[C@H]1O` (some centres unmarked) [NCGC00385739-01] was tested, and the “CC (curve class)” value was 2.

`C[C@@H](N)[C@H]1CC[C@H](C(=O)Nc2ccncc2)CC1` [Y-27632] was tested, and the “CC (curve class)” value was 2 and 1.

With `O=c1[nH]c2ccc(Cl)cc2c(N[C@@H]2CN3CCC2CC3)c1-c1nc2ccccc2[nH]1` [CHIR-124] the “CC (curve class)” value was 4.

For `Cc1cc(Nc2cc(NC(=O)c3c(Cl)cccc3Cl)ccn2)nc(N)n1` [RO495], the “CC (curve class)” value was 1.

With `NS(=O)(=O)c1ccc(Nc2nc(OCC3CCCCC3)c3[nH]cnc3n2)cc1` [NU-6102] the “CC (curve class)” value was 3.

For `C[C@]12C[C@@H](O)[C@H]3[C@@H](CC[C@@H]4C[C@@H](O)CC[C@@]43CO)[C@@]1(O)CC[C@@H]2C1=CC(=O)OC1` [19-hydroxysarmentogenin], the “CC (curve class)” value was 4.

With `O=S(=O)(c1cccc2cnccc12)N1CCCNCC1` [Fasudil hydrochloride] the “CC (curve class)” value was 3.

In the case of `O=C1NC(=O)C(=O)C(=O)N1` [ALLOXAN], the “CC (curve class)” value was 2.

With `Cc1c[nH]c2ncnc(N3CCC(CN)(C(=O)Nc4cccc(OC(=O)N(C)C)c4)CC3)c12` [LX-7101] the “CC (curve class)” value was 4.

`C=C1CC[C@@H]2[C@@](C)(CO[C@@H]3O[C@H](CO)[C@@H](O)[C@H](O)[C@H]3O)[C@H](O)CC[C@@]2(C)[C@@H]1CC/C(C)=C/CO[C@@H]1O[C@H](CO)[C@@H](O)[C@H](O)[C@H]1O` [NCGC00385284-01] was tested, and the “CC (curve class)” value was −1.

With `COc1cc2nc(-c3cc(F)ccc3O)nc(N[C@@H]3CNC[C@H]3C(C)(C)O)c2cc1OC` [CCT-241533] the “CC (curve class)” value was 3.

In the case of `CC1CNCCN1S(=O)(=O)c1cccc2cnccc12.Cl.Cl` (centres unmarked) [1-(5-Isoquinolinylsulfonyl)-2-methylpipenvine dihydrochloride], the “CC (curve class)” value was 3.

`CC1CN(S(=O)(=O)c2cccc3cnccc23)CCN1.Cl.Cl` (centres unmarked) [1-05-IsoquinolinylstilfonyI)-3-methylpiperazine dihydroehloride] was tested, and the “CC (curve class)” value was 3.

`C/C=C(/C)C(=O)O[C@H]1C(C)=C[C@]23C(=O)[C@@H](C=C(CO)[C@@H](O)[C@]12O)[C@H]1[C@@H](C[C@H]3C)C1(C)C` [Ingenol mebutate] was tested, and the “CC (curve class)” value was 1.

In the case of `CC(C)[C@H](NC(=O)c1ccc2ccccc2n1)C(=O)N[C@@H](CC(=O)O)C(=O)COc1c(F)cccc1F` [Q-VD-OPh hydrate], the “CC (curve class)” value was 1.

In the case of `CC(C)(C)c1nc2c3cc[nH]c(=O)c3c3cc(F)ccc3c2[nH]1` [Pyridone 6], the “CC (curve class)” value was 4.

With `C=C(NC(=O)C(=C)NC(=O)c1csc(C2=N[C@@H]3c4csc(n4)[C@H]4NC(=O)c5csc(n5)[C@H]([C@](C)(O)[C@@H](C)O)NC(=O)[C@H]5CSC(=N5)/C(=C/C)NC(=O)[C@H]([C@@H](C)O)NC(=O)c5csc(n5)[C@]3(CC2)NC(=O)[C@H](C)NC(=O)C(=C)NC(=O)[C@H](C)NC(=O)[C@H]([C@@H](C)CC)N[C@@H]2C=Cc3c([C@H](C)O)cc(nc3[C@H]2O)C(=O)O[C@@H]4C)n1)C(N)=O` [Thiostrepton from Streptomyces azureus, Thiostrepton] the “CC (curve class)” value was 2.

With `Cc1sc2c(c1C)C(c1ccc(Cl)cc1)=N[C@@H](CC(=O)NCCCCNC(=O)COc1cccc3c1C(=O)N(C1CCC(=O)NC1=O)C3=O)c1nnc(C)n1-2` (some centres unmarked) [dBETI] the “CC (curve class)” value was −1.

In the case of `NC[C@@](O)(c1ccc(Cl)cc1)c1ccc(-c2cn[nH]c2)cc1` [AT-13148], the “CC (curve class)” value was 1.
